This data set deals with Acanthamoeba castellanii trophozoites sterol biosynthesis. Kind of data set: Sterol composition of treated Ac trophozoites (GC/MS). It counts as cell-based. The protocol: Amoeba and HEK cells were harvested at one or more points during growth in the presence and absence of steroidal inhibitor and azole at IC50 or MACs of the inhibitor or at 40 µM for HEK cells. Cell pellets were split with an internal standard of known amounts of 5α-cholestane added to one of the cell pellets for determination of sterol amounts in cells. Cells were saponified directly in aqueous methanolic potassium hydroxide at the reflux temperature for 1 h, which yielded total sterol (free plus sterol released from ester bonds). The resulting neutral lipids obtained by dilution with water and extraction with hexane (Fisher) were analyzed by GC/MS or HPLC-equipped with a diode array detector against cholesterol as a chromatographic reference. GC and HPLC retention times of sterols were compared with those obtained from authentic standards in our steroid collection ([18]–[22]). To determine the trophozoite sterol metabolome, GC/MS analysis of cell pellet nonsaponfiables was typically carried out using control cultures incubated in 5 ml medium in 25 ml T-flasks inoculated with 1 × 10^4 trophozoites/ml and cultured for 72 h. To generate significant cell pellets for sterol analysis of treated cells, trophozoites were cultured in 10 ml medium in 25 ml T-flasks inoculated with 1 × 10^5 cells/ml and grown for 48 h.

Regarding `CC(CCC=C1CC1)C1CC[C@@]2(C)C3=C(CCC12C)C1(C)CCC(O)C(C)(C)C1CC3` (some centres unmarked) [DHL, 26,27-dehydrolanosterol], under “15 µM, 48 h harvest”, the “DHL and 26-methyl DHL in treated cells” value was 1 % total sterol. For the same compound, under “DHL treatment”, the “inhibitor detected in treated cells by GC/MS” value is reported as about 0.5 % total sterol.

These data come from PMC5711494, “Sterol methyltransferase a target for anti-amoeba therapy: towards transition state analog and suicide substrate drug design” (Journal of Lipid Research, 2017).
